In patent publication US20260248767A1, “METHODS FOR INDUCING FERROPTOSIS IN CANCER” (Board of Regents, The University of Texas System, priority 2023, published 2026):
For at least one compound, name, drawing or mass did not settle the structure.

Test system: HT-1080 cells
Test: Cell death assay (PI flow cytometry), HT-1080 cells incl. knockout lines
Conditions: cell death inhibitors added to RSL3 plus sulfite

## CC(=O)N(O)CCCCCNC(=O)CCC(=O)N(O)CCCCCNC(=O)CCC(=O)N(O)CCCCCN [deferoxamine]
  rescue of RSL3 plus sulfite induced cell death or decrease in cell viability: rescued
